A number of entries come with more than one value. Only these are listed. The source may hold further records. Results that share an entry differ, and nothing given here explains why; they may come from other doses, times, organisms or constructs than stated.
Tested on: MDCK-II monolayers
Assay: In vitro MDCK-II permeability
Details: 2 µM, 150 min

CCCCNC(=O)CN1C(=O)SC(=Cc2ccccc2)C1=O was tested, and the “Efflux Ratio (B > A/A > B)” value was “less than 2.0 and 1.4”.

From publication PMC5663708, “Novel Benzylidene Thiazolidinedione Derivatives as Partial PPARγ Agonists and their Antidiabetic Effects on Type 2 Diabetes” (Scientific Reports, 2017)
